# Results as given in PMC5751800, “Functional characterization of chitin-binding lectin from Solanum integrifolium containing anti-fungal and insecticidal activities” (BMC Plant Biology, 2018).
# System: T1, CBL (chitin-binding lectin from S. integrifolium; recombinant CBL)
# T1 construct: natural CBL from fruit 30 and 20 kDa on SDS-PAGE, about 66 kDa non-reducing
# Experiment: hemagglutination inhibition, trypsinized human erythrocytes
# Design: species or system Solanum aethiopicum
# Conditions: minimum concentration for complete inhibition of hemagglutination; PBS, room temperature, 4% RBC; recombinant lectin by context (methods say only lectin samples)
row,SMILES,^aMIC [mM]
1,N[C@H]1C(O)O[C@H](CO)[C@@H](O)[C@@H]1O (stereo partly drawn) [D-glucosamine],100
2,CC(=O)N[C@H]1C(O)O[C@H](CO)[C@H](O)[C@@H]1O (stereo partly drawn) [GalNAc],25
3,CC(=O)N[C@H]1C(O)O[C@H](CO)[C@@H](O)[C@@H]1O (stereo partly drawn) [GlcNAc],3.12
